Measured values reported in PubChem BioAssay AID1347426 (Functional Genomics Laboratory (NCATS/FGL), 2020).
Hit rate of the full screen: of about 31,000 sequences, about 1,400 (4.5%) were called active.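 Rule for the calls: active = median seed-adjusted z-score above 1 or below -1; inactive = the rest.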 The list shows a part of the results.

test: Novel Modifiers of Survival Motor Neuron (SMN) Protein: Gene Identification via Genome-wide siRNA Screen; conditions: HEK293T SMN2-luciferase reporter, siRNA knockdown, 72 h; actives lie on both sides;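 note: luminescence tracks full-length SMN protein made from the SMN2 reporter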
How it was run: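 siRNA screen, 10418 genes ×3 siRNAs; 1 pmol/well, lipid reverse transfection into HEK293T SMN2-luc reporter line. 72 h, 37 °C, 5% CO2; ONE-Glo readout. Data: neg-ctrl normalized, log10, MAD; hit = MAD >1.0 or < -1.0.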

Sequence | median seed-adjusted z-score
GGCUCAUGCUCAACGAGAATT against PTGES2 | inactive: -0.02
GAAUGUAACUUCACAACCATT against ZHX2 | inactive: 0.0708
CAGACUUGCUUAAUAGUAATT against ZFP1 | inactive: 0.0391
GGCUUAUGGGUGUUCGGAUTT against POLK | inactive: -0.102
CAACUGAACCACCCAAAUATT against NEK6 | inactive: -0.674
CCAUGACCACAGACAUCUUTT against PLCB2 | inactive: 0.0845
CCGAAAGUGUGACCUCUGATT against AGXT2L1 | inactive: 0.285
GCCUCUUAAUUUACCAGAATT against OGN | inactive: 0.0889
GCAUCUCUUUGUAGCAUUUTT against MMD2 | inactive: -0.0908
GGACCGUUUCAGUAUCAUUTT against ITIH5 | inactive: -0.289
CGGGAACUAUCCAAACAAUTT against DMBT1 | inactive: -0.131
CAGAUAUACUGUGCCUUCATT against APEX1 | inactive: -0.312
CAGCUACUUUAAAGGACAATT against IBSP | inactive: -0.111
CAACGUAGAUGGUGAUGGATT against FAM63B | inactive: 0.111
GGACUACGAGAAAGACAAATT against PPM1L | inactive: 0.4
GGCUAUUCCGAAGCAUGUUTT against PAK6 | inactive: -0.57
GAGUCUACCUAAUUCUGGATT against AURKA | inactive: -0.108
GGUUAAAUCAUGUAGGAGATT against RARS | inactive: -0.268
GAAGCUCCCAAGGACAUUATT against ATG7 | inactive: -0.328
GCAUACGAUUUUAAGCGGATT against PTEN | inactive: -0.408
UGCUACACGUCAGUGCUGATT against PGAM2 | inactive: -0.247
CGAGGACAACACCCACUUUTT against ATP2A1 | inactive: -0.0384

Sequence | median seed-adjusted z-score
GGAUCGUAGUGAAACCGAUTT against DDX17 | inactive: 0.231
GCAGUAAUAUUUAUCUCUUTT against SUCNR1 | inactive: 0
GAUACGUGCUUCAACAAAATT against NEK11 | inactive: 0.181
CCCAGAAGAUUACCUUUGATT against NARG1L | inactive: 0.0121
GCCUAGCAGCUGUUGGUUATT against ADHFE1 | inactive: 0.418
GCCUUUGUCCUGUAUAACATT against LPHN3 | inactive: -0.0576
GGAAUAUAAUGUUAACGAUTT against HLTF | inactive: -0.00902
GCAACUUGGACUACAAGAATT against MYL2 | inactive: -0.0369
CAACGGUACUUGACCUCAATT against KCNJ1 | inactive: 0.0148
GGAUUAUGAUUUUGAGGAATT against ZMAT2 | inactive: 0.104
GGAUCCUGGUGAUAAGAGATT against QRICH1 | active: -1.04
GGACAGCGCGUUCUUUAAATT against TCF7L1 | inactive: -0.251
GGAGGAUUGUGCUCUGCAATT against FHOD1 | inactive: -0.114
GGCUCAACAUACAUCAGAATT against ZNF350 | inactive: 0.133
CAAUAUGCCCUGUUAGGAUTT against SLC22A15 | inactive: -0.137
GAAGAGCUCCCGAGACAUATT against DDX28 | inactive: -0.305
CAUCGUUACAAGAUGCAUATT against UBR1 | inactive: -0.775
GCAGCGUAAUUACCACCAUTT against SLCO5A1 | inactive: 0.272
ACUUGGUUUGCUCAACAAATT against MXI1 | inactive: 0.348
GUGUCGAGCUUGCAACUGUTT against LAMC2 | inactive: -0.186
CUCUGAACUUGGACCGCAATT against ZFYVE28 | inactive: 0.0678
GCCUUCGACUUUGAGUUUATT against VPS26B | inactive: -0.038

Sequence | median seed-adjusted z-score
GCCUCAACAUCAGGGUGGATT against ABCD1 | inactive: 0
GCUGUGAGAUUUACUCUGATT against ALAS1 | active: -1.15
CGAGCGUAUCACCAUCUUUTT against NLGN2 | inactive: 0.204
AGUUCAACCAGGUAGGGAATT against ZBTB17 | inactive: 0.0544
GCUUCUCAUGGGAUCAAAATT against PGCP | inactive: 0.145
GAAUCAUUAUAAGGAUCAATT against RAMP2 | inactive: 0.289
UGACGUAGGAAUAAACGGATT against PCDH11X | inactive: -0.203
GGAUCAAUGUGACGGAGAATT against EMILIN2 | inactive: 0.726
GAGUAGUACCUGAUACAGATT against LAMC2 | inactive: -0.186
CAGCUUUACGAGUAUGCAATT against HS6ST3 | inactive: -0.405
GCAUCUUGUUGGACAUAUUTT against MTA1 | inactive: 0.407
CGAUGUACGUAUCAUCUCATT against RBM23 | inactive: 0.14
GCUUCUGACAUAAAACGGATT against CCNG2 | inactive: -0.764
GAACGUGCGUUAUACCGCATT against DYNC1H1 | inactive: 0
CUUCAUCUUCCGUAUCUUATT against PCTK1 | inactive: -0.729
CCUUAUAUGAAGAACCAGATT against MYCBP | inactive: -0.196
GGAUGUUCUUAGCACAUCATT against BLM | inactive: -0.0654
CCUUACGAAUCAUAAGAUATT against ZNF708 | inactive: 0.0562
GAGCACAAACGGAAACAAUTT against BCL11A | inactive: 0.297
CCGUAGCACUCAUUAUUCUTT against SLC2A13 | inactive: -0.0451
CCAAGAUGCUCUUUACAAATT against GLRX2 | inactive: -0.244
GAAGGAAUGAUUCGAUUUATT against WDHD1 | inactive: -0.0501

Sequence | median seed-adjusted z-score
GGUACUCGGUGAUAAUUGATT against AOF1 | inactive: -0.211
AGAGGAAUGUGAUUGUCAUTT against AKR1B10 | inactive: 0
CGACUGCGAGUGGACUAUATT against MRE11A | inactive: 0.0507
GCCUUUAAAUGGUCUUUAATT against ZNF141 | inactive: 0.223
GGAAGCGGCUGAUCUUUUATT against ST6GALNAC1 | inactive: -0.854
CUGUUACCAUGGACUCGGATT against ACCN2 | inactive: -0.597
GCUAUGACCUUGUCAUACATT against ZNF544 | inactive: -0.00739
CUUCUGCGAUAGCAACUAATT against SLC12A1 | inactive: -0.406
GGACUUGGAUUAUGAACUATT against COL6A3 | inactive: 0.341
GGUAAUAGAUGGUCUGGAATT against PPIL3 | inactive: 0.282
GUGGUGUGGUCAACGAAGATT against KCNIP1 | inactive: -0.0767
CCUGACCAGUGUCUACAUUTT against ADAMTS13 | inactive: -0.276
GACUUACCUUCUGAGCAUATT against ZNF792 | inactive: 0
GGACUUUCCUGAUAACAGUTT against PLCB2 | inactive: 0.0845
CGACCGUGGUGACAUGAUUTT against LRP3 | active: -1.05
GCAAUUACAUGAGCGAGCATT against PLK1 | active: -2.57
CACCACCAGUCACAACCUATT against ARID5A | inactive: 0.0642
CAGAGUACCUGAACUAUGATT against MARS | inactive: -0.266
GAGUCACACCUGUCGAUUATT against TSNAX | inactive: 0.514
ACAAGUUGCUGGAAGGUGATT against KLK15 | inactive: 0
CAGUAAGACAGAUACGUCATT against NCOA3 | inactive: -0.594
GGCUUUAACCGGAAGUCAATT against ZNF133 | inactive: -0.199

Sequence | median seed-adjusted z-score
AGAUCAUGUAUUACCAACATT against RGS9 | inactive: 0.0665
CAUUACUACUUUGCGCAAATT against PUM2 | inactive: -0.129
GGCAAUUGAUAAUACUUCATT against MUT | inactive: 0.333
GAACCACUUACACAAAAUATT against KLK9 | inactive: -0.476
GCACAAGGAUCAUUUUCGATT against MYO6 | inactive: 0
GCAUUACGAUUUCAGCUGATT against CPNE3 | inactive: 0.109
GGUCGAGCAGAUGAACUUATT against SDCCAG10 | inactive: -0.465
AGUGGGAUAUGGUCCGAAATT against ACTN3 | inactive: -0.109
CAGAUGAUAUUAUUGCGUATT against PHTF1 | inactive: 0.0129
AGACAGUUAUGCAGCUAUUTT against CLTA | inactive: 0.243
UGCUCUCAGUGGAAGAGGATT against TNFRSF8 | inactive: 0.739
CAGAUGAAAGGGUAAUAAATT against ZNF480 | inactive: -0.164
CUAUGAUGAAUACACCAAATT against COL10A1 | inactive: -0.0291
GAUGUAGAGCGAUACUUCATT against ZNF230 | inactive: -0.203
GCUGGAUACUUUUAUCGCATT against LOC91431 | inactive: 0.0402
CCAACCUUCUGAAUACGUUTT against GPR126 | inactive: -0.243
CCAUUUUAGCAACUGAACATT against KLRC1 | inactive: 0.171
GUAUCAGUGUAAAGGAUCATT against CD3G | inactive: -0.0274
GGAAAAUCAUGGAAGUUGATT against IGF2BP2 | inactive: 0.281

Shown as tab-separated lines: part of the list above.
Sequence	median seed-adjusted z-score
GAGUCACACCUGUCGAUUATT against TSNAX	inactive: 0.514
ACAAGUUGCUGGAAGGUGATT against KLK15	inactive: 0
CAGUAAGACAGAUACGUCATT against NCOA3	inactive: -0.594
AGAUCAUGUAUUACCAACATT against RGS9	inactive: 0.0665
CAUUACUACUUUGCGCAAATT against PUM2	inactive: -0.129
GGCAAUUGAUAAUACUUCATT against MUT	inactive: 0.333
GAACCACUUACACAAAAUATT against KLK9	inactive: -0.476
GCACAAGGAUCAUUUUCGATT against MYO6	inactive: 0
GGUCGAGCAGAUGAACUUATT against SDCCAG10	inactive: -0.465
AGUGGGAUAUGGUCCGAAATT against ACTN3	inactive: -0.109
CAGAUGAUAUUAUUGCGUATT against PHTF1	inactive: 0.0129
AGACAGUUAUGCAGCUAUUTT against CLTA	inactive: 0.243
UGCUCUCAGUGGAAGAGGATT against TNFRSF8	inactive: 0.739
CAGAUGAAAGGGUAAUAAATT against ZNF480	inactive: -0.164
CUAUGAUGAAUACACCAAATT against COL10A1	inactive: -0.0291
GAUGUAGAGCGAUACUUCATT against ZNF230	inactive: -0.203
GCUGGAUACUUUUAUCGCATT against LOC91431	inactive: 0.0402
CCAACCUUCUGAAUACGUUTT against GPR126	inactive: -0.243
GUAUCAGUGUAAAGGAUCATT against CD3G	inactive: -0.0274
GGAAAAUCAUGGAAGUUGATT against IGF2BP2	inactive: 0.281
